Article PMC2613030
These are yes or no findings as the source states them, for the method shown. In cells and extracts the contact can be indirect. Some entries that bind do so weakly or less than the wild type.

Target: T1, saglin on mosquito salivary glands (not stated (endogenous in mosquito salivary glands; An. gambiae and An. stephensi colonies kept)) (UniProt F7IW82)
T1 sequence: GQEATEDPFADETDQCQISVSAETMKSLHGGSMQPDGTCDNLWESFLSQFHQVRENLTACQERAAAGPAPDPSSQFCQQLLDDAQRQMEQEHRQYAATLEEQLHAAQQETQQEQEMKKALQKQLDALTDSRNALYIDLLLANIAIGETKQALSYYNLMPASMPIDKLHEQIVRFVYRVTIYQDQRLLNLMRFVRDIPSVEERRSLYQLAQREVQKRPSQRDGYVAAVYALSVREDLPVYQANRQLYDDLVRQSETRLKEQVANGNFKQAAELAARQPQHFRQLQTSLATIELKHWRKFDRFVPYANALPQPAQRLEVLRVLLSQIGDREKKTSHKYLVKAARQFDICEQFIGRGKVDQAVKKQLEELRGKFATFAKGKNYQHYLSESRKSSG
Assay: cross-linking; double-derivatized SM1 (10 µg/ml in PBS) incubated with freshly dissected salivary glands 1 h at 4°C in the dark, washed, UV 30 min, glands lysed (0.1% NP40), capture on streptavidin-agarose beads, SDS-PAGE under reducing conditions, bands identified by LC/MS/MS; only the binder purified

PCQRAIFQSICN [double-derivatized SM1 peptide]
binding: binds
